Data published in publication PMC4745755.
These are yes or no findings as the source states them, for the method shown. Binding seen in cells or lysates may run through a third protein. A result given as binding can be weak or reduced; the word gives no strength.

Biological target: α3β1 integrin (human (endogenous in glioblastoma cell lines))
Assay: co-IP; lysates of [^3H]-palmitate-labelled glioblastoma cell lines, lysed in 1% Brij-96 for 5 h at 4°C; immunoprecipitation with the indicated antibodies, radiographic detection of labelled proteins

binding	Binder
binds	Tetraspanin CD81 (protein, UniProt P60033 1-236, [^3H]-palmitate, metabolic labelling (residues not stated)) MGVEGCTKCIKYLLFVFNFVFWLAGGVILGVALWLRHDPQTTNLLYLELGDKPAPNTFYVGIYILIAVGAVMMFVGFLGCYGAIQESQCLLGTFFTCLVILFACEVAAGIWGFVNKDQIAKDVKQFYDQALQQAVVDDDANNAKAVVKTFHETLDCCGSSTLTALTTSVLKNNLCPSGSNIISNLFKEDCHQKIDDLFSGKLYLIGIAAIVVAVIMIFEMILSMVLCCGIRNSSVY
binds	Tetraspanin CD82 (protein, UniProt P27701 1-267, [^3H]-palmitate, metabolic labelling (residues not stated)) MGSACIKVTKYFLFLFNLIFFILGAVILGFGVWILADKSSFISVLQTSSSSLRMGAYVFIGVGAVTMLMGFLGCIGAVNEVRCLLGLYFAFLLLILIAQVTAGALFYFNMGKLKQEMGGIVTELIRDYNSSREDSLQDAWDYVQAQVKCCGWVSFYNWTDNAELMNRPEVTYPCSCEVKGEEDNSLSVRKGFCEAPGNRTQSGNHPEDWPVYQEGCMEKVQAWLQENLGIILGVGVGVAIIELLGMVLSICLCRHVHSEDYSKVPKY
